{"source": "PubChem BioAssay AID743454 | Peter MacCallum Cancer Centre | 2014", "test": "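Genes whose loss kills vorinostat-resistant colon cancer cells under vorinostat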 (primary screen)", "cell system": "human HCT116-VR colon cancer cells, selected for vorinostat resistance", "knock-down reagent": "siRNA pool against human genes, 40 nM siRNA pool", "timing": "vorinostat for 24 h, read-out about 72 h after transfection", "conditions": "vorinostat at 2.5 µM final", "measured": "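Cell viability by CellTiter-Fluor and caspase 3/7 activity by luminescence, each scaled to mock wells per plate, duplicates averaged, then robust z-scored over all plates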", "scale": "viability robust z-score: higher = more viable cells than screen typical; caspase robust z-score: higher = more caspase 3/7 activity than screen typical", "hit rule": "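Hits are knock-downs in viability class RV1/RV2 or caspase class CA1/CA2, excluding ones that killed cells in the no-drug cell-count arm; hits then retested with single siRNAs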", "note": "The whole screen tested about 18,000 reagents; shown is a part drawn at random. 450 of them (2.5%) count as active. 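Single biological run; no consistent viability z cut-off exists, so the class columns, not z-scores, define the calls.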 Entries without a mark were called inactive."}
{"Target gene": "TIPRL (TOR signaling pathway regulator)", "viability hit class": "no change", "caspase hit class": "no change", "viability robust z-score": 1.06, "caspase robust z-score": -0.9}
{"Target gene": "INSM2 (INSM transcriptional repressor 2)", "viability hit class": "no change", "caspase hit class": "no change", "viability robust z-score": 0.64, "caspase robust z-score": 3.79}
{"Target gene": "MTX1 (metaxin 1)", "viability hit class": "no change", "caspase hit class": "no change", "viability robust z-score": 0.58, "caspase robust z-score": 3.38}
{"Target gene": "CHN1 (chimerin 1)", "viability hit class": "no change", "caspase hit class": "no change", "viability robust z-score": -0.1, "caspase robust z-score": -0.94}
{"Target gene": "VGLL2 (vestigial like family member 2)", "viability hit class": "no change", "caspase hit class": "no change", "viability robust z-score": -0.34, "caspase robust z-score": 0.2}
{"Target gene": "GOLIM4 (golgi integral membrane protein 4)", "viability hit class": "no change", "caspase hit class": "no change", "viability robust z-score": 0.74, "caspase robust z-score": -0.08}
{"Target gene": "SNX5 (sorting nexin 5)", "viability hit class": "no change", "caspase hit class": "no change", "viability robust z-score": -0.32, "caspase robust z-score": -0.81}
{"Target gene": "LARP1 (La ribonucleoprotein 1, translational regulator)", "viability hit class": "no change", "caspase hit class": "no change", "viability robust z-score": -1.43, "caspase robust z-score": -0.47}
{"Target gene": "ABCD1 (ATP binding cassette subfamily D member 1)", "viability hit class": "no change", "caspase hit class": "no change", "viability robust z-score": -0.09, "caspase robust z-score": -0.52}
{"Target gene": "CCDC107 (coiled-coil domain containing 107)", "viability hit class": "no change", "caspase hit class": "no change", "viability robust z-score": 1.26, "caspase robust z-score": -0.96}
{"Target gene": "ZNF346 (zinc finger protein 346)", "viability hit class": "no change", "caspase hit class": "no change", "viability robust z-score": 0.91, "caspase robust z-score": -0.92}
{"Target gene": "HNRNPH3 (heterogeneous nuclear ribonucleoprotein H3)", "viability hit class": "no change", "caspase hit class": "no change", "viability robust z-score": -0.44, "caspase robust z-score": -0.77}

Entries listed so far whose gene name begins with C or c (2):
{"Target gene": "CHN1 (chimerin 1)", "viability hit class": "no change", "caspase hit class": "no change", "viability robust z-score": -0.1, "caspase robust z-score": -0.94}
{"Target gene": "CCDC107 (coiled-coil domain containing 107)", "viability hit class": "no change", "caspase hit class": "no change", "viability robust z-score": 1.26, "caspase robust z-score": -0.96}

The results go on.
{"Target gene": "FOXE3 (forkhead box E3)", "viability hit class": "no change", "caspase hit class": "no change", "viability robust z-score": 0.38, "caspase robust z-score": 0.84}
{"Target gene": "MCEMP1 (mast cell expressed membrane protein 1)", "viability hit class": "no change", "caspase hit class": "no change", "viability robust z-score": -2.73, "caspase robust z-score": -0.18}
{"Target gene": "HSPA4 (heat shock protein family A (Hsp70) member 4)", "viability hit class": "no change", "caspase hit class": "no change", "viability robust z-score": 0.94, "caspase robust z-score": 0.12}
{"Target gene": "GAK (cyclin G associated kinase)", "viability hit class": "no change", "caspase hit class": "no change", "viability robust z-score": -0.63, "caspase robust z-score": -0.12}
{"Target gene": "VAMP5 (vesicle associated membrane protein 5)", "viability hit class": "no change", "caspase hit class": "no change", "viability robust z-score": 0.11, "caspase robust z-score": 0.66}
{"Target gene": "SPATA20 (spermatogenesis associated 20)", "viability hit class": "no change", "caspase hit class": "no change", "viability robust z-score": 0.16, "caspase robust z-score": -0.02}
{"Target gene": "STARD6 (StAR related lipid transfer domain containing 6)", "viability hit class": "no change", "caspase hit class": "no change", "viability robust z-score": 0.65, "caspase robust z-score": 0.14}
{"Target gene": "PREB (prolactin regulatory element binding)", "viability hit class": "no change", "caspase hit class": "no change", "viability robust z-score": 0.84, "caspase robust z-score": -0.88}
{"Target gene": "PLCG1 (phospholipase C gamma 1)", "viability hit class": "no change", "caspase hit class": "no change", "viability robust z-score": 0.7, "caspase robust z-score": 0.72}
